Results are given in words; binding and its absence hold for the method and conditions named. Some results given as binding are weak or reduced against the parent protein; the word gives no strength.

The chains behind the UniProt entries cited, without tags or fusion partners. Residues count along the entry.
UniProt Q15596, residues 624-869: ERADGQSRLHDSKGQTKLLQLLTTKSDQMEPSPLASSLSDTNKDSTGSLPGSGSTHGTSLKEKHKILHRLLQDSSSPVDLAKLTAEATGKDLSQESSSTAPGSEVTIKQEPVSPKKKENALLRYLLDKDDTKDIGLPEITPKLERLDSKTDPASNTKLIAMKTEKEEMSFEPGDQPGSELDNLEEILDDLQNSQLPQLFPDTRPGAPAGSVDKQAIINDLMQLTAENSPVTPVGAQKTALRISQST

The test concerns the target T1, Gal4-hPXR (human) (UniProt O75469).
T1 sequence: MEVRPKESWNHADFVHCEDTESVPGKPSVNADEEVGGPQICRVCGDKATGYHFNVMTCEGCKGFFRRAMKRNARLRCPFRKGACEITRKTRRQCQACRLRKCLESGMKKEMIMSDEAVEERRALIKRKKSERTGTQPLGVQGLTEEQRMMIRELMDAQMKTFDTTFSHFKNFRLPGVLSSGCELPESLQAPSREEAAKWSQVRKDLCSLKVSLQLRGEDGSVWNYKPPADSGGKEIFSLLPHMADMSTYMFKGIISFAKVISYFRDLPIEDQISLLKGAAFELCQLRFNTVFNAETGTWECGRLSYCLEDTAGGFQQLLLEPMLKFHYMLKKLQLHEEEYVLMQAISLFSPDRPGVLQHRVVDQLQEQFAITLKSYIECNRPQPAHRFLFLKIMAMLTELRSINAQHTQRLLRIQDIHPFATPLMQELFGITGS
Kind of test: two-hybrid; mammalian two-hybrid in U2OS cells, 17Mx5-Glob-LUC reporter; cells treated with DMSO, SR12813, EE2, TNC or EE2+TNC.

Consider “VP16 (activation domain)-TIF2 (amino acids 624-869 containing three LXXLL motifs) (from UniProt Q15596 624-869) (domain or fragment)”, for which the binding entry is recorded as “binds”.
